The text below walks through data of US20230250168A1 (MABWELL SHANGHAI BIOSCIENCE, published 2023).

By UniProt entry, the sequences of proteins in these tests, tags left out. Where a name states a change or a piece, a line headed by the entry shows the natural chain unless it says otherwise. Chains listed by the source or under a name are the forms on record and can include a tag or linker.
human CLDN18.2 expressed on cell surfaces (P56856, form named): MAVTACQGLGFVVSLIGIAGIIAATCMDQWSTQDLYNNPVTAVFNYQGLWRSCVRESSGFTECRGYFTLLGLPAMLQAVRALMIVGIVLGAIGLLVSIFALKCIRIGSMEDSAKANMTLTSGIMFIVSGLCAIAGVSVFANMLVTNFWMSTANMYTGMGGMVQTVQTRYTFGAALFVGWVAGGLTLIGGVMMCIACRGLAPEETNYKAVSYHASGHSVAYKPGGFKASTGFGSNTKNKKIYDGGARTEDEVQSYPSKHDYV

Results are given in words; binding and its absence hold for the method and conditions named. Some binding calls cover weakened binding; strength is not graded here.

Experiment [1] deals with human CLDN18.2 expressed on cell surfaces (human) (UniProt P56856). In words: flow cytometry on transfected HEK293 cells.
For experiment [2] the target is unchanged. In words: flow cytometry on HEK293 cells transfected with human CLDN18.2, MFI; antibody concentration not shown. (In general: Flow cytometry measures light scatter and fluorescence of single cells or particles in a stream.)

B1: 16K15-hz22 (antibody, human IgG1, V domains shown)
VH: EVQLVESGGGLVQPGGSLRLSCAGSGITLSTYAMSWVRQAPGKGLEWVSSIISGGITYYLDSVKGRFTISRDNAKNTLYLQMSSLRAEDTAVYYCARKYHGNALDYWGQGTLVTVSS
VL: DIVMTQSPDSLAVSLGERATINCKSSQSLLSSGNQRNYLTWYQQKPGQPPKKLIYWASTRESGVPDRFSGSGSGTDFTLTISSLQAEDLAVYYCQNNYFYPLTFGQGTKLEIK
notes: Humanized; also called 16K15-hz22 IgG; 16K15-22 IgG
Regarding B1, the binding result in experiment [1] and in experiment [2] was “binds” in each case.
